Results on 13 molecules are retold here after article PMC11679068, “Affinity Peptide-Based Circularly Permuted Fluorescent Protein Biosensors for Non-Small Cell Lung Cancer Diagnosis” (Sensors (Basel, Switzerland), 2024).

No constants are given. Whether binding was seen depends on the method and setting. Some entries that bind do so weakly or less than the wild type.

The target in experiment [1] is T1, carcinoembryonic antigen (UniProt P06731 35-685).
T1 construct: carcinoembryonic antigen (CEA), serum tumor marker; also called CEA; CAE
T1 sequence (looked up): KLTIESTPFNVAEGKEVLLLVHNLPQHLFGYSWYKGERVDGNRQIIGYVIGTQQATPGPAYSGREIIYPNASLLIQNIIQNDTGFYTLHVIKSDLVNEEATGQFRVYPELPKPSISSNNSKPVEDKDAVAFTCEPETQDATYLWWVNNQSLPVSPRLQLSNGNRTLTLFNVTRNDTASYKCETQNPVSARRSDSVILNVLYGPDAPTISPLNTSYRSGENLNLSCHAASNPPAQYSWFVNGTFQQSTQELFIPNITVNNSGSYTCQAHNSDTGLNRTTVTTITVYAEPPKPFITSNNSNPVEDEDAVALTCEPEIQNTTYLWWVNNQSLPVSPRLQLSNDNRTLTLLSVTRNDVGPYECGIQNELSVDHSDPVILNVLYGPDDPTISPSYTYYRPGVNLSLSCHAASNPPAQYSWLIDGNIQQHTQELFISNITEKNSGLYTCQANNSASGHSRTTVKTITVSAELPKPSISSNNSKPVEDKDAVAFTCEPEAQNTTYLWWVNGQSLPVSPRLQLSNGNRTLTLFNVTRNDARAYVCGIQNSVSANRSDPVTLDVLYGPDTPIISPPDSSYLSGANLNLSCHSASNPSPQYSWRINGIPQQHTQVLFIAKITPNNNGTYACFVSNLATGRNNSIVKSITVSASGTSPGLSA
Nature of the experiment: phage display panning; target protein coated on 96-well plates (100 ug/mL, bicarbonate buffer pH 8.6, 4 C overnight), BSA blocked; Ph.D.-12 library 60 min at room temperature; TBST washes; elution with glycine-HCl pH 2.2; three rounds; 30 colonies sequenced; only the target purified.

The target of experiment [2] is T1, carcinoembryonic antigen. The experiment can be described thus: ELISA; protein (100 ug/mL) coated on 96-well plates, BSA blocked; 10^10 phage particles per well, 37 C, 1 h; detection with HRP anti-M13 antibody, OPD; only the target purified.

As to DRGSGVPADELW [phage-displayed peptide C12], in experiment [1], the binding entry is “binds”.

For WSLNSGMFGYQW [phage-displayed peptide C11], in experiment [1], the binding entry is given as “binds”.

B1: synthetic peptide C2 (peptide)
peptide: YGVSALSSYVSC
notes: dodecapeptide C2 from phage display, synthesized; source: synthetic peptide (Fmoc solid phase, Synpeptide Co., HPLC purified)
On to B1, for which the binding result in experiment [1] and in experiment [2] was “binds” in each case.

Consider FPRLTALAGPWP [phage-displayed peptide C9], for which the binding entry in experiment [1] was “binds”.

B2: synthetic peptide C4 (peptide)
peptide: HHRLTRSMQLMM
notes: dodecapeptide C4 from phage display, synthesized; source: synthetic peptide (Fmoc solid phase, Synpeptide Co., HPLC purified)
B2: the binding entry in experiment [1] and in experiment [2] was “binds” each time.

B3: synthetic peptide C3 (peptide)
peptide: WSPSALLPSSVT
notes: dodecapeptide C3 from phage display, synthesized; source: synthetic peptide (Fmoc solid phase, Synpeptide Co., HPLC purified)
As for B3, the binding result in experiment [1] and in experiment [2] was “binds” throughout.

As to DVSPSRNQDRSP [phage-displayed peptide C6], the binding entry in experiment [1] was “binds”.

In the case of SWFQSDNTLRRP [phage-displayed peptide C13], the binding result in experiment [1] is recorded as “binds”.

For VNPFHKFTAGNQ [phage-displayed peptide C7], the binding result in experiment [1] is recorded as “binds”.

Turning to VVGRAMAYSTIP [phage-displayed peptide C1 (…)], in experiment [1], the binding result was “binds”.

On to DVTWRTSYSSDS [phage-displayed peptide C10], for which the binding result in experiment [1] is recorded as “binds”.

As to FQAPYWLTLGGE [phage-displayed peptide C5], the binding result in experiment [1] is “binds”.

Take ALNGVKGPLRMD [phage-displayed peptide C8]: the binding entry in experiment [1] is “binds”.
